# Laboratory results taken from the supplement of paper PMC9135407.
# Several values for one entry are separate records, joined by “and”; a condition that tells them apart may be missing. Equal values may be shown once. Where a name gives a salt, the structure may show the parent alone. ± gives the standard deviation of the averaged measurements. Some of the results follow. Baselines shift from plate to plate; read single values as rough.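 Culture-activated primary human stellate myofibroblasts, where regained lipid droplets signal inactivation. Value: share of Hoechst-counted cells above a per-plate Bodipy cutoff, in duplicate wells, with DMSO negative and nortriptyline positive controls on each plate. Hits: a control-normalized score above the plate's top-tenth-percentile nortriptyline wells, or one of a plate's three best wells. Final well concentrations are not given.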
# Tested on: primary human hepatic stellate cells (donor 1)
# Assay: percent Bodipy-positive cells; higher = more lipid droplet accumulation
# Settings: 48 h
# [1] = library stock concentration: 1 mM
# [2] = library stock concentration: 3.33 mM
# [3] = library stock concentration: 10 mM
# [4] = library stock concentration: 80 uM
# [5] = library stock concentration: 400 uM
# [6] = library stock concentration: 2 mM
compound,measurement,setting,value
CCCCC1C(=O)N(c2ccccc2)N(c2ccccc2)C1=O [Phenylbutazone],percent Bodipy-positive cells,[1],11.4 ± 3%
same,percent Bodipy-positive cells,[2],11.2 ± 4.2%
same,percent Bodipy-positive cells,[3],19.4% and 12.5% and 18.1%
Nc1ncnc2c1nc(Br)n2[C@@H]1O[C@@H]2COP(=O)(O)O[C@H]2[C@H]1O [8-Bromo-cAMP],percent Bodipy-positive cells,library stock concentration: 12.3 mM,26.8 ± 5.3%
"Nc1ncnc2c1nc(Br)n2[C@@H]1O[C@@H]2COP(=O)(O)O[C@H]2[C@H]1O [8-Bromo-cAMP, sodium salt]",percent Bodipy-positive cells,[3],9.6 ± 4.2%
O=C(Nc1ccc2[nH]nc(-c3ccncc3)c2c1)[C@@H]1CCN(CC(=O)N2CCN(c3ccc(-c4ncccn4)cc3)CC2)C1,percent Bodipy-positive cells,[4],9.61 ± 1.6%
same,percent Bodipy-positive cells,[5],10.8 ± 2.1%
same,percent Bodipy-positive cells,[6],13.3 ± 2.9%
CCCCCCCCCCCCCCCCCC(=O)NCCS(=O)(=O)O [N-Stearoyl Taurine],percent Bodipy-positive cells,[1],9.75 ± 0.51%
CCCCC[C@@H](O)[C@H]1C(=O)O[C@H](C)[C@@H](O)/C=C/C=C/C=C/C=C/C=C(\C)[C@@H](O)C[C@H](O)C[C@H](O)C[C@H](O)C[C@H](O)C[C@H](O)C[C@@H]1O [Filipin],percent Bodipy-positive cells,library stock concentration: 3.1 mM,4.55 ± 0.67%
CCCCC[C@@H](O)[C@H]1C(=O)O[C@H](C)[C@@H](O)/C=C/C=C/C=C/C=C/C=C(\C)[C@@H](O)C[C@H](O)C[C@H](O)C[C@H](O)C[C@H](O)C[C@H](O)C[C@@H]1O [Filipin III],percent Bodipy-positive cells,[1],7.205 ± 0.039%
N=C(N)SCCN [S-(2-aminoethyl) Isothiourea (dihydrobromide)],percent Bodipy-positive cells,[1],15.8 ± 1.4%
N=C(N)SCCN [2-(2-Aminoethyl)isothiourea dihydrobromide],percent Bodipy-positive cells,[3],42.2 ± 1.6%
CN(C)Cc1c(C(=O)NCCOc2ccc(C(=O)NO)cc2)oc2ccccc12,percent Bodipy-positive cells,[2],74.3 ± 1.9%
same,percent Bodipy-positive cells,[3],77.1 ± 2.9%
Nc1nccc(-c2ccc3noc(-c4ccc(Cl)cc4)c3c2)n1 [PIM 1 Inhibitor 2],percent Bodipy-positive cells,[3],13.3 ± 3.2%
COc1cc2ncnc(Nc3ccc(F)c(Cl)c3)c2cc1NC(=O)/C=C/CN1CCCCC1,percent Bodipy-positive cells,[4],12.5 ± 1.9%
same,percent Bodipy-positive cells,[5],31.6 ± 6.2%
same,percent Bodipy-positive cells,[3],95 ± 7.1%
Cc1cc(CN2CCN(c3c(Br)cnc4[nH]c(-c5ccc(N6CCN(C)CC6)cc5)nc34)CC2)no1,percent Bodipy-positive cells,[2],97.7 ± 2.4%
O=C(CCCCC(=O)Nc1c(I)cc(I)c(C(=O)O)c1I)Nc1c(I)cc(I)c(C(=O)O)c1I [Iodipamide],percent Bodipy-positive cells,,12.6 ± 1.2%
same,percent Bodipy-positive cells,[3],36.4 ± 19%
COc1ccc(/C=C/c2cc(Cl)cc(Cl)c2)cc1,percent Bodipy-positive cells,[1],8.36 ± 2.5%
CO[C@@H]1[C@H](O)[C@@H](CO)O[C@H]1n1cnc2c(NC3CCCCC3)ncnc21,percent Bodipy-positive cells,[3],10.4 ± 3.7%
Nc1c(S(=O)(=O)O)cc(Nc2ccc(Nc3nc(Cl)nc(Nc4cccc(S(=O)(=O)O)c4)n3)c(S(=O)(=O)O)c2)c2c1C(=O)c1ccccc1C2=O [Reactive Blue 2],percent Bodipy-positive cells,[3],2.24 ± 0.31%
CC(C)C1C2CCC(C2)C1N (stereo not drawn),percent Bodipy-positive cells,[3],26.5 ± 1.4%
CSc1nc(N)c2ncn([C@@H]3O[C@H](COP(=O)(O)OP(=O)(O)O)[C@H](O)C3O)c2n1 (stereo partly drawn),percent Bodipy-positive cells,[3],50.3 ± 7.2%
Cc1ccc(C(=O)C(C)CN2CCCCC2)cc1 (stereo not drawn) [Tolperisone HCl],percent Bodipy-positive cells,[2],8.117 ± 0.04%
same,percent Bodipy-positive cells,[3],31.3 ± 8.4%
Cc1ccc(C(=O)C(C)CN2CCCCC2)cc1 (stereo not drawn) [Tolperisone hydrochloride],percent Bodipy-positive cells,[3],15.7 ± 1.9%
Cc1c(C)c2c(c(C)c1O)CCC(C)(CCCC(C)C(=O)O)O2 (stereo not drawn),percent Bodipy-positive cells,[1],8.96 ± 4.2%
CNCC[C@@H](Oc1ccccc1C)c1ccccc1 [Atomoxetine HCl],percent Bodipy-positive cells,[2],50.2 ± 2.5%
same,percent Bodipy-positive cells,[3],53.3 ± 12%
CNCC[C@@H](Oc1ccccc1C)c1ccccc1 [Tomoxetine hydrochloride],percent Bodipy-positive cells,[3],36.3 ± 2.8%
CNCC[C@@H](Oc1ccccc1C)c1ccccc1 [Atomoxetine hydrochloride],percent Bodipy-positive cells,library stock concentration: 7.2 mM,30.9 ± 6.3%
CNCC[C@@H](Oc1ccccc1C)c1ccccc1 [Tomoxetine],percent Bodipy-positive cells,[3],61.8 ± 0.67%
"c1ccc(CN2CCC3(CCCc4ccccc43)CC2)cc1 [L-687,384 hydrochloride]",percent Bodipy-positive cells,[3],91.2 ± 5.3%
CCC(CC)(NC(=O)C(C)C)C(=O)N[C@@H](CCCN=C(N)N)C(=O)NC1(C(=O)NC(c2ccc(F)cc2)c2ccc(F)cc2)CCCC1,percent Bodipy-positive cells,[2],25.1 ± 0.91%
same,percent Bodipy-positive cells,[3],30.9 ± 6.6%
CCN(CC)CCCN(c1ccccc1)C1Cc2ccccc2C1 [Aprindine hydrochloride],percent Bodipy-positive cells,[3],57.1 ± 8.8%
CC(C)=CCC/C(C)=C\CO [Nerol],percent Bodipy-positive cells,[3],21.94 ± 0.03%
COCCCOc1ccnc(C[S+]([O-])c2nc3ccccc3[nH]2)c1C (stereo not drawn),percent Bodipy-positive cells,[3],5.79 ± 1.9%
COCCCOc1ccnc(C[S+]([O-])c2nc3ccccc3[nH]2)c1C (stereo not drawn) [Rabeprazole sodium],percent Bodipy-positive cells,library stock concentration: 5.2 mM,15.8 ± 3%
Cc1cc(Nc2ncc(Cl)c(Nc3ccccc3S(=O)(=O)C(C)C)n2)c(OC(C)C)cc1C1CCNCC1,percent Bodipy-positive cells,[2],98.9 ± 1.6%
same,percent Bodipy-positive cells,[3],100%
Cc1cc(Nc2ncc(Cl)c(Nc3ccccc3S(=O)(=O)C(C)C)n2)c(OC(C)C)cc1C1CCNCC1 [Ceritinib],percent Bodipy-positive cells,[4],29.67 ± 0.18%
same,percent Bodipy-positive cells,[5],32.3 ± 7.6%
same,percent Bodipy-positive cells,[6],60.5 ± 15%
same,percent Bodipy-positive cells,[3],78.8 ± 12%
"O=C(O)Cc1cc(I)c(Oc2ccc(O)c(I)c2)c(I)c1 [Tiratricol, 3,3',5-triiodothyroacetic acid]",percent Bodipy-positive cells,,35.3 ± 5.3%
O=C(O)Cc1cc(I)c(Oc2ccc(O)c(I)c2)c(I)c1 [Tiratricol],percent Bodipy-positive cells,[2],14.1 ± 2%
same,percent Bodipy-positive cells,[3],29.6 ± 5%
O=C(O)Cc1cc(I)c(Oc2ccc(O)c(I)c2)c(I)c1,percent Bodipy-positive cells,[3],33.8 ± 5.5%
C[C@@H](C(=O)O)c1ccc(-c2ccccc2)c(F)c1 [(R)-Flurbiprofen],percent Bodipy-positive cells,[1],7.14 ± 0.14%
CC(Cc1ccc(O)c(O)c1)C(C)Cc1ccc(O)c(O)c1 (stereo not drawn) [Nordihydroguaiaretic Acid],percent Bodipy-positive cells,[1],4.32 ± 1.6%
C(=C(\CCNC1)/C1)(/c2c(cccn2)CC3)\c(ccc(Cl)c4)c34 [Desloratadine],percent Bodipy-positive cells,library stock concentration: 6.4 mM,72.5 ± 3.4%
C[C@@H](Oc1cc(-c2cnn(C3CCNCC3)c2)cnc1N)c1c(Cl)ccc(F)c1Cl,percent Bodipy-positive cells,[4],14.4 ± 4.6%
same,percent Bodipy-positive cells,[5],37.8 ± 13%
same,percent Bodipy-positive cells,[6],58.3 ± 14%
same,percent Bodipy-positive cells,[3],89.6 ± 4.4%
N=C(N=C(N)N)N1CCOCC1 [Moroxidine hydrochloride],percent Bodipy-positive cells,,25.8 ± 4.4%
Cn1cc(/C=C/C(=O)c2cccc(F)c2)cc1/C=C/C(=O)NO,percent Bodipy-positive cells,[4],34.1 ± 5.8%
same,percent Bodipy-positive cells,[5],40.9 ± 7%
same,percent Bodipy-positive cells,[6],51 ± 2.4%
same,percent Bodipy-positive cells,[2],16.8 ± 3.2%
"C=C1CCC(O)C/C1=C\C=C1\CCCC2(C)C1CCC2C(C)CCC(O)C(C)(C)O (stereo not drawn) [24,25-Dihydroxyvitamin D3]",percent Bodipy-positive cells,[1],6 ± 3.8%
Nc1nccc2c1ncn2C1C=C(CO)C(O)C1O (stereo not drawn) [3-Deazaneplanocin A (DZNeP)],percent Bodipy-positive cells,[2],20.4 ± 0.27%
same,percent Bodipy-positive cells,[3],35.4 ± 23%
Cc1nc(N(C)C(=O)Cc2ccc(-c3ccccn3)cc2)sc1S(N)(=O)=O [Pritelivir (BAY 57-1293)],percent Bodipy-positive cells,[2],26 ± 7%
same,percent Bodipy-positive cells,[3],37.2 ± 4.7%
CC(=O)OCC(=O)[C@@]12OC3(CCCC3)O[C@@H]1C[C@H]1[C@@H]3CCC4=CC(=O)C=C[C@]4(C)[C@@]3(F)[C@@H](O)C[C@@]12C [Amcinonide],percent Bodipy-positive cells,library stock concentration: 4 mM,5.79 ± 1.5%
same,percent Bodipy-positive cells,[3],26.1 ± 5%
CC(=O)OCC(=O)[C@@]12OC3(CCCC3)O[C@@H]1C[C@H]1[C@@H]3CCC4=CC(=O)C=C[C@]4(C)[C@@]3(F)[C@@H](O)C[C@@]12C,percent Bodipy-positive cells,[3],18.8 ± 5.5%

# Another view of part of the listing above.
compound | measurement | setting | value
Cc1cc(Nc2ncc(Cl)c(Nc3ccccc3S(=O)(=O)C(C)C)n2)c(OC(C)C)cc1C1CCNCC1 [Ceritinib] | percent Bodipy-positive cells | [3] | 78.8 ± 12%
O=C(O)Cc1cc(I)c(Oc2ccc(O)c(I)c2)c(I)c1 [Tiratricol, 3,3',5-triiodothyroacetic acid] | percent Bodipy-positive cells |  | 35.3 ± 5.3%
O=C(O)Cc1cc(I)c(Oc2ccc(O)c(I)c2)c(I)c1 [Tiratricol] | percent Bodipy-positive cells | [2] | 14.1 ± 2%
